Single values of this set are uncertain.
B1: Rpb7; numbered along this chain (parent)
chain: MFFIKDLSLNITLHPSFFGPRMKQYLKTKLLEEVEGSCTGKFGYILCVLDYDNIDIQRGRILPTDGSAEFNVKYRAVVFKPFKGEVVDGTVVSCSQHGFEVQVGPMKVFVTKHLMPQDLTFNAGSNPPSYQSSEDVITIKSRIRVKIEGCISQVSSIHAIGSIKEDYLGAI

Experiments:
[1] = variants of: B1; experiment: log2 fold change of mutant abundance, UV-irradiated vs unirradiated; higher = more UV resistant (enriched after UV); details: with Saccharomyces cerevisiae rad7Δ rad26Δ; UV dose (J/m2): 10; genetic background: rad7Δ rad26Δ rpb7Δ + plasmid RPB7 library; outgrowth: 10 cell divisions
[2] = variants of: B1; experiment: NOISeq theta enrichment statistic, UV-irradiated vs unirradiated (dimensionless); higher = more UV resistant (enriched after UV); details: with Saccharomyces cerevisiae rad7Δ rad26Δ; UV dose (J/m2): 10; genetic background: rad7Δ rad26Δ rpb7Δ + plasmid RPB7 library; outgrowth: 10 cell divisions

| Variant | log2 fold change of mutant abundance [1] | NOISeq theta enrichment statistic [2] |
| --- | --- | --- |
| MFFIKDLSLNITLHPSFFGPRMKQYLKTKLLEEVEGSCTGKFGYILCVLDEDNIDIQRGRILPTDGSAEFNVKYRAVVFKPFKGEVVDGTVVSCSQHGFEVQVGPMKVFVTKHLMPQDLTFNAGSNPPSYQSSEDVITIKSRIRVKIEGCISQVSSIHAIGSIKEDYLGAI | 1.12 | 0.527 |
| MFFIKDLSLNITLHPSFFGPRMKQYLKTKLLEEVEGSCTGKFGYILCVLDFDNIDIQRGRILPTDGSAEFNVKYRAVVFKPFKGEVVDGTVVSCSQHGFEVQVGPMKVFVTKHLMPQDLTFNAGSNPPSYQSSEDVITIKSRIRVKIEGCISQVSSIHAIGSIKEDYLGAI | 0.0285 | 0.148 |
| MFFIKDLSLNITLHPSFFGPRMKQYLKTKLLEEVEGSCTGKFGYILCVLDHDNIDIQRGRILPTDGSAEFNVKYRAVVFKPFKGEVVDGTVVSCSQHGFEVQVGPMKVFVTKHLMPQDLTFNAGSNPPSYQSSEDVITIKSRIRVKIEGCISQVSSIHAIGSIKEDYLGAI | -0.000122 | -0.000295 |
| MFFIKDLSLNITLHPSFFGPRMKQYLKTKLLEEVEGSCTGKFGYILCVLDIDNIDIQRGRILPTDGSAEFNVKYRAVVFKPFKGEVVDGTVVSCSQHGFEVQVGPMKVFVTKHLMPQDLTFNAGSNPPSYQSSEDVITIKSRIRVKIEGCISQVSSIHAIGSIKEDYLGAI | 0.327 | 0.24 |
| MFFIKDLSLNITLHPSFFGPRMKQYLKTKLLEEVEGSCTGKFGYILCVLDKDNIDIQRGRILPTDGSAEFNVKYRAVVFKPFKGEVVDGTVVSCSQHGFEVQVGPMKVFVTKHLMPQDLTFNAGSNPPSYQSSEDVITIKSRIRVKIEGCISQVSSIHAIGSIKEDYLGAI | -0.223 | -0.124 |
| MFFIKDLSLNITLHPSFFGPRMKQYLKTKLLEEVEGSCTGKFGYILCVLDLDNIDIQRGRILPTDGSAEFNVKYRAVVFKPFKGEVVDGTVVSCSQHGFEVQVGPMKVFVTKHLMPQDLTFNAGSNPPSYQSSEDVITIKSRIRVKIEGCISQVSSIHAIGSIKEDYLGAI | 0.0538 | 0.052 |
| MFFIKDLSLNITLHPSFFGPRMKQYLKTKLLEEVEGSCTGKFGYILCVLDMDNIDIQRGRILPTDGSAEFNVKYRAVVFKPFKGEVVDGTVVSCSQHGFEVQVGPMKVFVTKHLMPQDLTFNAGSNPPSYQSSEDVITIKSRIRVKIEGCISQVSSIHAIGSIKEDYLGAI | -0.0798 | -0.0916 |
| MFFIKDLSLNITLHPSFFGPRMKQYLKTKLLEEVEGSCTGKFGYILCVLDNDNIDIQRGRILPTDGSAEFNVKYRAVVFKPFKGEVVDGTVVSCSQHGFEVQVGPMKVFVTKHLMPQDLTFNAGSNPPSYQSSEDVITIKSRIRVKIEGCISQVSSIHAIGSIKEDYLGAI | -0.0215 | -0.0708 |
| MFFIKDLSLNITLHPSFFGPRMKQYLKTKLLEEVEGSCTGKFGYILCVLDQDNIDIQRGRILPTDGSAEFNVKYRAVVFKPFKGEVVDGTVVSCSQHGFEVQVGPMKVFVTKHLMPQDLTFNAGSNPPSYQSSEDVITIKSRIRVKIEGCISQVSSIHAIGSIKEDYLGAI | -0.395 | -0.15 |
| MFFIKDLSLNITLHPSFFGPRMKQYLKTKLLEEVEGSCTGKFGYILCVLDSDNIDIQRGRILPTDGSAEFNVKYRAVVFKPFKGEVVDGTVVSCSQHGFEVQVGPMKVFVTKHLMPQDLTFNAGSNPPSYQSSEDVITIKSRIRVKIEGCISQVSSIHAIGSIKEDYLGAI | 0.0769 | 0.132 |
| MFFIKDLSLNITLHPSFFGPRMKQYLKTKLLEEVEGSCTGKFGYILCVLDVDNIDIQRGRILPTDGSAEFNVKYRAVVFKPFKGEVVDGTVVSCSQHGFEVQVGPMKVFVTKHLMPQDLTFNAGSNPPSYQSSEDVITIKSRIRVKIEGCISQVSSIHAIGSIKEDYLGAI | 0.441 | 0.3 |
| MFFIKDLSLNITLHPSFFGPRMKQYLKTKLLEEVEGSCTGKFGYILCVLDYANIDIQRGRILPTDGSAEFNVKYRAVVFKPFKGEVVDGTVVSCSQHGFEVQVGPMKVFVTKHLMPQDLTFNAGSNPPSYQSSEDVITIKSRIRVKIEGCISQVSSIHAIGSIKEDYLGAI | -0.121 | -0.219 |
| MFFIKDLSLNITLHPSFFGPRMKQYLKTKLLEEVEGSCTGKFGYILCVLDYCNIDIQRGRILPTDGSAEFNVKYRAVVFKPFKGEVVDGTVVSCSQHGFEVQVGPMKVFVTKHLMPQDLTFNAGSNPPSYQSSEDVITIKSRIRVKIEGCISQVSSIHAIGSIKEDYLGAI | 0.149 | 0.109 |
| MFFIKDLSLNITLHPSFFGPRMKQYLKTKLLEEVEGSCTGKFGYILCVLDYENIDIQRGRILPTDGSAEFNVKYRAVVFKPFKGEVVDGTVVSCSQHGFEVQVGPMKVFVTKHLMPQDLTFNAGSNPPSYQSSEDVITIKSRIRVKIEGCISQVSSIHAIGSIKEDYLGAI | 0.00378 | 0.0153 |
| MFFIKDLSLNITLHPSFFGPRMKQYLKTKLLEEVEGSCTGKFGYILCVLDYFNIDIQRGRILPTDGSAEFNVKYRAVVFKPFKGEVVDGTVVSCSQHGFEVQVGPMKVFVTKHLMPQDLTFNAGSNPPSYQSSEDVITIKSRIRVKIEGCISQVSSIHAIGSIKEDYLGAI | 0.299 | 0.241 |
| MFFIKDLSLNITLHPSFFGPRMKQYLKTKLLEEVEGSCTGKFGYILCVLDYGNIDIQRGRILPTDGSAEFNVKYRAVVFKPFKGEVVDGTVVSCSQHGFEVQVGPMKVFVTKHLMPQDLTFNAGSNPPSYQSSEDVITIKSRIRVKIEGCISQVSSIHAIGSIKEDYLGAI | 0.0493 | 0.164 |
| MFFIKDLSLNITLHPSFFGPRMKQYLKTKLLEEVEGSCTGKFGYILCVLDYHNIDIQRGRILPTDGSAEFNVKYRAVVFKPFKGEVVDGTVVSCSQHGFEVQVGPMKVFVTKHLMPQDLTFNAGSNPPSYQSSEDVITIKSRIRVKIEGCISQVSSIHAIGSIKEDYLGAI | 0.0665 | 0.0681 |

4 successive entries from above, for reference:

| Variant | log2 fold change of mutant abundance [1] | NOISeq theta enrichment statistic [2] |
| --- | --- | --- |
| MFFIKDLSLNITLHPSFFGPRMKQYLKTKLLEEVEGSCTGKFGYILCVLDYENIDIQRGRILPTDGSAEFNVKYRAVVFKPFKGEVVDGTVVSCSQHGFEVQVGPMKVFVTKHLMPQDLTFNAGSNPPSYQSSEDVITIKSRIRVKIEGCISQVSSIHAIGSIKEDYLGAI | 0.00378 | 0.0153 |
| MFFIKDLSLNITLHPSFFGPRMKQYLKTKLLEEVEGSCTGKFGYILCVLDYFNIDIQRGRILPTDGSAEFNVKYRAVVFKPFKGEVVDGTVVSCSQHGFEVQVGPMKVFVTKHLMPQDLTFNAGSNPPSYQSSEDVITIKSRIRVKIEGCISQVSSIHAIGSIKEDYLGAI | 0.299 | 0.241 |
| MFFIKDLSLNITLHPSFFGPRMKQYLKTKLLEEVEGSCTGKFGYILCVLDYGNIDIQRGRILPTDGSAEFNVKYRAVVFKPFKGEVVDGTVVSCSQHGFEVQVGPMKVFVTKHLMPQDLTFNAGSNPPSYQSSEDVITIKSRIRVKIEGCISQVSSIHAIGSIKEDYLGAI | 0.0493 | 0.164 |
| MFFIKDLSLNITLHPSFFGPRMKQYLKTKLLEEVEGSCTGKFGYILCVLDYHNIDIQRGRILPTDGSAEFNVKYRAVVFKPFKGEVVDGTVVSCSQHGFEVQVGPMKVFVTKHLMPQDLTFNAGSNPPSYQSSEDVITIKSRIRVKIEGCISQVSSIHAIGSIKEDYLGAI | 0.0665 | 0.0681 |
